Values of other authors in patent US8158088B2, “Extractant compositions for co-extracting cesium and strontium, a method of separating cesium and strontium from an aqueous feed, and calixarene compounds” (Battelle Energy Alliance, LLC, priority 2008, dated 2012).
For at least one compound, name, drawing or mass did not settle the structure.

Settings: in extractant solvent with 0.075 M DtBuCH18C6, 0.75 M Cs-7SB, ISOPAR L (FPEX I process solvent); cited from earlier work

## CC(C)(C)CC(C)(C)c1ccc2c(c1)OCCOCCOc1c3cccc1Cc1cccc4c1OCCOCCOc1cc(C(C)(C)CC(C)(C)C)ccc1OCCOCCOc1c(cccc1C3)Cc1cccc(c1OCCOCCO2)C4 [BOBCalixC6, calix[4]arene-bis(tert-octylbenzo)-crown-6, reference compound]
  maximum (solubility limited) concentration: 7 mM
